We go through 1 substance from patent US5767254 (dated 1998).

The data set in a line: general procedure: Fmoc solid-phase peptide synthesis; Rink resin; BOP. The settings on record: whole synthesis, based on resin, scale 0.85 g.

Substance “H2 N-Tyr-D-Cys-Gly-Phe-D-Cys-Ser(O-β-D-Glc)-Gly-CONH2” gave an isolated yield of 28%.
